Results reported in article doi:10.1101/2021.08.16.456495.
These are yes or no findings as the source states them, for the method shown. Some results given as binding are weak or reduced against the parent protein; the word gives no strength.

Amino acid sequences for entries named in this document (tags omitted). Residues count along the entry.
UniProt Q9NPF0, residues 53-171: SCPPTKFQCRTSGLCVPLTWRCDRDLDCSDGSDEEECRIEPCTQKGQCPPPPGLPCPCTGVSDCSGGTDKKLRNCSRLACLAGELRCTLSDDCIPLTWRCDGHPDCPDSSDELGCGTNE

Target: Transcobalamin receptor TCblR (CD320), crystallization construct, as in the TC:TCblR complex (human) (UniProt Q9NPF0)
Assay: crystal structure

binding: binds
B1: Transcobalamin (TC), B12-bound, as in the TC:TCblR complex (protein, UniProt P20062 19-427)
chain: EMCEIPEMDSHLVEKLGQHLLPWMDRLSLEHLNPSIYVGLRLSSLQAGTKEDLYLHSLKLGYQQCLLGSAFSEDDGDCQGKPSMGQLALYLLALRANCEFVRGHKGDRLVSQLKWFLEDEKRAIGHDHKGHPHTSYYQYGLGILALCLHQKRVHDSVVDKLLYAVEPFHQGHHSVDTAAMAGLAFTCLKRSNFNPGRRQRITMAIRTVREEILKAQTPEGHFGNVYSTPLALQFLMTSPMRGAELGTACLKARVALLASLQDGAFQNALMISQLLPVLNHKTYIDLIFPDCLAPRVMLEPAAETIPQTQEIISVTLQVLSLLPPYRQSISVLAGSTVEDVLKKAHELGGFTYETQASLSGPYLTSVMGKAAGEREFWQLLRDPNTPLLQGIADYRPKDGETIELRLVSW
